Laboratory results as given in the supplement of paper PMC10849652.
The other results are listed elsewhere or left out.

The chains behind the UniProt entries cited, without tags or fusion partners. Where a name states a change or a piece, a line headed by the entry shows the natural chain unless it says otherwise.
UniProt Q9H2V7: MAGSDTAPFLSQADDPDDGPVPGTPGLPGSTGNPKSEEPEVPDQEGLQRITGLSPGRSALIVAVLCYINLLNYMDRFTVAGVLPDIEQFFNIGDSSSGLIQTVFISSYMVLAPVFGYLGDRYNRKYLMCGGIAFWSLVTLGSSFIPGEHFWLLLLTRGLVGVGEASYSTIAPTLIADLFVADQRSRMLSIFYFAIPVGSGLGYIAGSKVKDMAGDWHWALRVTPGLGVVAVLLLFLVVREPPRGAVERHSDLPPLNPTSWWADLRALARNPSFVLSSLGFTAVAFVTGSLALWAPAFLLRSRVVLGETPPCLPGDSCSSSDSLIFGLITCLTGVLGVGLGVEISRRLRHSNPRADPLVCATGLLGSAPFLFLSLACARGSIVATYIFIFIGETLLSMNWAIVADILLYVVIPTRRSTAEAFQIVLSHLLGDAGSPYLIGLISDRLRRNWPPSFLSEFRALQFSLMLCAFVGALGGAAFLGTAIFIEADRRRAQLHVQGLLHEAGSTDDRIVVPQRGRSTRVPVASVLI
UniProt Q13103: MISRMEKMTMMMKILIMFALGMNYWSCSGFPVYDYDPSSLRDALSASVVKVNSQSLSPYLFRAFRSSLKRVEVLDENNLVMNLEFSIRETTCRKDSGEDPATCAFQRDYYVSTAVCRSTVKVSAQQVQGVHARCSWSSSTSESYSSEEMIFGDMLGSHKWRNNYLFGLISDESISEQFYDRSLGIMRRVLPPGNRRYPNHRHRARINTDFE
UniProt Q9NUL3: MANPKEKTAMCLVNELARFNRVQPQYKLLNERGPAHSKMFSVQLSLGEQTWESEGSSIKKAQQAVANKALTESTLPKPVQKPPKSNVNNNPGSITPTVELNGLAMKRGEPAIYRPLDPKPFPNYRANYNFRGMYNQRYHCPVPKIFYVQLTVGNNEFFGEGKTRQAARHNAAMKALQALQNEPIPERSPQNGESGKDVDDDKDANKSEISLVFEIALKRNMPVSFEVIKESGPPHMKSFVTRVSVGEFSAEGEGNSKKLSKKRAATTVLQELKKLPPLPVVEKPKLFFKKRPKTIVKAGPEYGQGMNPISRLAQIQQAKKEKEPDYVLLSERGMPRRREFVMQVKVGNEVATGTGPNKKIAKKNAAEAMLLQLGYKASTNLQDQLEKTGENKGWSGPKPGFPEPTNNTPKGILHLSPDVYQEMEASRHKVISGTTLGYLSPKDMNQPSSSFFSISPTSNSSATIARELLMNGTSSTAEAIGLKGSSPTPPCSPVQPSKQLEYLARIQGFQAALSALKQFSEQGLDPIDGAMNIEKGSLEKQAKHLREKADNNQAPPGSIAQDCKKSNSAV
UniProt Q9NP77: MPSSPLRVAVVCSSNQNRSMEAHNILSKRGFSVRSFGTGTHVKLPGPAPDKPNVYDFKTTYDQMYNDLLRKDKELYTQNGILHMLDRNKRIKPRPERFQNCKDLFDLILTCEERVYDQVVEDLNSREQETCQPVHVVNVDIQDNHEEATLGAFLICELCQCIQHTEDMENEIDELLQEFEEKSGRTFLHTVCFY
UniProt Q14849, whole entry, looked up: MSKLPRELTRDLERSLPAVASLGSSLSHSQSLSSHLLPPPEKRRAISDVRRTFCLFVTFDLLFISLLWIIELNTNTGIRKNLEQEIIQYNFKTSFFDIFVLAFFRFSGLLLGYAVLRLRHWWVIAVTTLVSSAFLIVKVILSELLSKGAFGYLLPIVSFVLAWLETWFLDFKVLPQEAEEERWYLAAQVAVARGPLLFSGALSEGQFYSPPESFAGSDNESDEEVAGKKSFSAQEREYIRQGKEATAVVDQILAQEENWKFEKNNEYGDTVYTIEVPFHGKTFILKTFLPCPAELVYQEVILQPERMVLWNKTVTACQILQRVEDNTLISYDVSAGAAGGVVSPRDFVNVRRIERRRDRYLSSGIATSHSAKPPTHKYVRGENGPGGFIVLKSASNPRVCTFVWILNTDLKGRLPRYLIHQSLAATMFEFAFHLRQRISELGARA
UniProt Q8N9Q2: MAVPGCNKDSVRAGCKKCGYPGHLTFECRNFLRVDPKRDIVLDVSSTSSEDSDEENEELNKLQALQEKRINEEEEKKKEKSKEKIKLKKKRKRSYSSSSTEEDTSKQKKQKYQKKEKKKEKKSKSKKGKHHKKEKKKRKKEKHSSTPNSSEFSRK
UniProt Q11206: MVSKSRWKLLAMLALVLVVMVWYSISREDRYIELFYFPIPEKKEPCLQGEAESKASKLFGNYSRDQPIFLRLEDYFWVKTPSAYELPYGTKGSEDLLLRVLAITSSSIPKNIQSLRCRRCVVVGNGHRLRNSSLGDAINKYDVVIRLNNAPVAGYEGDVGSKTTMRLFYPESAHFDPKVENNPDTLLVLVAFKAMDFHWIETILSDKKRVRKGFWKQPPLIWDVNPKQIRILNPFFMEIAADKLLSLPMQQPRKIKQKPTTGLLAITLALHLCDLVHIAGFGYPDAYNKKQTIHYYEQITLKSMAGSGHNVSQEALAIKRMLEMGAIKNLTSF
UniProt P52630: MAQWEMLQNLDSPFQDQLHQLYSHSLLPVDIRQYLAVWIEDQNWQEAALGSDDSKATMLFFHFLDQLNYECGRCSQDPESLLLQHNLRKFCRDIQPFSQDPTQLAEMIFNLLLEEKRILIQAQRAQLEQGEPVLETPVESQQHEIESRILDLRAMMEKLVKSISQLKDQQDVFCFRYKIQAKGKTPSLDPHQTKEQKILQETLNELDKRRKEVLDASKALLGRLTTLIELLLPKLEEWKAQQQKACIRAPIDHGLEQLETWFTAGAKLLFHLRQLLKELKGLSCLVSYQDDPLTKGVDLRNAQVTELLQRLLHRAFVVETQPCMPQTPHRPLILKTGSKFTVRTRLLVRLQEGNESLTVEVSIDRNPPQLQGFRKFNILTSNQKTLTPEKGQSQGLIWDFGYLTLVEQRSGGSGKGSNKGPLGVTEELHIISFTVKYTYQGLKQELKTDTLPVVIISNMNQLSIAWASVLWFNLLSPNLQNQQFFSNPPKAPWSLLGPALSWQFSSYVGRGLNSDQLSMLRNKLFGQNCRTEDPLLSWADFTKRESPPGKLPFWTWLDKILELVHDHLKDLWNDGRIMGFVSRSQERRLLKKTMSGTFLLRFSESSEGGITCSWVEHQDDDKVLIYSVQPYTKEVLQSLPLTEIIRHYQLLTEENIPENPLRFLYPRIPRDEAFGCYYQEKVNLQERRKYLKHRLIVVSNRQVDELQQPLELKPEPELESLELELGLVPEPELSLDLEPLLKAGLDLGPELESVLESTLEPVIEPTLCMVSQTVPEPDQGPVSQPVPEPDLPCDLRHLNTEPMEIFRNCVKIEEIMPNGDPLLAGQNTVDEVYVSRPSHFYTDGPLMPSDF
UniProt Q07955, whole entry, looked up: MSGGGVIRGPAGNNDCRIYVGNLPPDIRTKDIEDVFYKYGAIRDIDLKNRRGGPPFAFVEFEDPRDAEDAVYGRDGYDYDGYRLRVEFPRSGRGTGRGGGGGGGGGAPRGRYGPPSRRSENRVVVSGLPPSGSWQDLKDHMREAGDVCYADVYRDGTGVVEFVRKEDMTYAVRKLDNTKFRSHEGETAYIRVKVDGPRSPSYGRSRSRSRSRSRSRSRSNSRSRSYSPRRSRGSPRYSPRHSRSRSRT
UniProt Q9NYA1, whole entry, looked up: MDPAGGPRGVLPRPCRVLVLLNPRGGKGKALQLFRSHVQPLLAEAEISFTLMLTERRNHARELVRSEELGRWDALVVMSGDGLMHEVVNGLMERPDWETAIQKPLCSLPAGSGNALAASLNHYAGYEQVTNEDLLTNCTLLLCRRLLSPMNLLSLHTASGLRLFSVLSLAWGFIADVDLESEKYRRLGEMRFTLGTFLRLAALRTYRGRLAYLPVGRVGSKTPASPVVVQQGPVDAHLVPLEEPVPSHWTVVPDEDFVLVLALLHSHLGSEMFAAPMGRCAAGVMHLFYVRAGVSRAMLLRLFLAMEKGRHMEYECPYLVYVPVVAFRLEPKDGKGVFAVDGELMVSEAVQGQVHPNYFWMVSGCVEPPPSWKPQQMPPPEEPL
UniProt O15270: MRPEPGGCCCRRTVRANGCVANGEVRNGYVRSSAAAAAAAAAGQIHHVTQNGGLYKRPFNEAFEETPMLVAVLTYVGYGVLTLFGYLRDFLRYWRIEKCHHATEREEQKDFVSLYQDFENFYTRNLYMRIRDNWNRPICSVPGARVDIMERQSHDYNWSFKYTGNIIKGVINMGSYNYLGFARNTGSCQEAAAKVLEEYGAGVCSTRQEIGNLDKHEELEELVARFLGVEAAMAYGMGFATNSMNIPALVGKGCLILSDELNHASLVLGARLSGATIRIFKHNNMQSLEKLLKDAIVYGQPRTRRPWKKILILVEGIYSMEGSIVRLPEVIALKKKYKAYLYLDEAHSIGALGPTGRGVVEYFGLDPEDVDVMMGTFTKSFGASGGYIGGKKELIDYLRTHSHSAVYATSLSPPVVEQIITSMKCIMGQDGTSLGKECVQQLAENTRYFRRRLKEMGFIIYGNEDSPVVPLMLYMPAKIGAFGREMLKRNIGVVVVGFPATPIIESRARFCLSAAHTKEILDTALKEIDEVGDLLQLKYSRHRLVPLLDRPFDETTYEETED
UniProt Q92783: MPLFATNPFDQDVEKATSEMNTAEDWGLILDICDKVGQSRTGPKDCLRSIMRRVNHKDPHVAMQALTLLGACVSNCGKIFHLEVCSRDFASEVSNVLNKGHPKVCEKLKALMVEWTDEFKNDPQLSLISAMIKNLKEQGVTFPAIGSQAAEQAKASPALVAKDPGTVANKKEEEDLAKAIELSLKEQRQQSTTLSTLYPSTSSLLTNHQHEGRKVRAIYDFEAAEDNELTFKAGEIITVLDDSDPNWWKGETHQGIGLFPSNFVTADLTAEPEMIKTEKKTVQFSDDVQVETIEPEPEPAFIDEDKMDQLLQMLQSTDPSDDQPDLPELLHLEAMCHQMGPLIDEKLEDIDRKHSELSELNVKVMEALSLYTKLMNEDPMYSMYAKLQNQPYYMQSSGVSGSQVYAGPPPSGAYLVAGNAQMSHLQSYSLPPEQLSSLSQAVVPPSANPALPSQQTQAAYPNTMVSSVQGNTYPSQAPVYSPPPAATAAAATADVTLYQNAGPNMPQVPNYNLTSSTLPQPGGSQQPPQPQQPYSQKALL
UniProt Q69YQ0: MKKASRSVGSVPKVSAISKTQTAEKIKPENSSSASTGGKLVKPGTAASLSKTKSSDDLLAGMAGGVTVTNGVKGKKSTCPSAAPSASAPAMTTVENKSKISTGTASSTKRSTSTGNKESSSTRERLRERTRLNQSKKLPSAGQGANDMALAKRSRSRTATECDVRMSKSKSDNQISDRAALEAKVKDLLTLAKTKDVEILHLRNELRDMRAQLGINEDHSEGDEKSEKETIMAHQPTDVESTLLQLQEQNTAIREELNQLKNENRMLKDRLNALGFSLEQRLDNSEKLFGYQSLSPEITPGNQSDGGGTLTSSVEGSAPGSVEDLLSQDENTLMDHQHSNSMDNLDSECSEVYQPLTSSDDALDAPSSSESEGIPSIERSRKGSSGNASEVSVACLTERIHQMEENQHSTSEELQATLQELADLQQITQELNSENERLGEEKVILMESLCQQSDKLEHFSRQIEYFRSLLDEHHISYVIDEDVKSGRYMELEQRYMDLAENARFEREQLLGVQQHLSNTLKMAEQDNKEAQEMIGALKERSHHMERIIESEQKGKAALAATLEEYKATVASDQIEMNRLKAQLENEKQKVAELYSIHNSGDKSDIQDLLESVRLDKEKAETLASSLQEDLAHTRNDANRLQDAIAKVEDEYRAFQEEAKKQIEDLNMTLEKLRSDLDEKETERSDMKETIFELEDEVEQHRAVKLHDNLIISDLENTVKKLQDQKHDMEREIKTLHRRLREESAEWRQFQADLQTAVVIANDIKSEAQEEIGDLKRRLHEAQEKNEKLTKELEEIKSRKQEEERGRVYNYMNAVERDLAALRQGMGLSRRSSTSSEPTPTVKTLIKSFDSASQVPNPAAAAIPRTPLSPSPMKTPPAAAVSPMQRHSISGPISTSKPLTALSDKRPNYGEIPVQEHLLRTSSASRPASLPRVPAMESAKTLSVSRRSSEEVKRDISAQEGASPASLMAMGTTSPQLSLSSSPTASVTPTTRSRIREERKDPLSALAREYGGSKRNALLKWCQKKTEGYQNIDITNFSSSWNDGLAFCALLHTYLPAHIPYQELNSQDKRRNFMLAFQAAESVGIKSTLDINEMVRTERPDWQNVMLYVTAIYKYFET
UniProt Q8NEF9: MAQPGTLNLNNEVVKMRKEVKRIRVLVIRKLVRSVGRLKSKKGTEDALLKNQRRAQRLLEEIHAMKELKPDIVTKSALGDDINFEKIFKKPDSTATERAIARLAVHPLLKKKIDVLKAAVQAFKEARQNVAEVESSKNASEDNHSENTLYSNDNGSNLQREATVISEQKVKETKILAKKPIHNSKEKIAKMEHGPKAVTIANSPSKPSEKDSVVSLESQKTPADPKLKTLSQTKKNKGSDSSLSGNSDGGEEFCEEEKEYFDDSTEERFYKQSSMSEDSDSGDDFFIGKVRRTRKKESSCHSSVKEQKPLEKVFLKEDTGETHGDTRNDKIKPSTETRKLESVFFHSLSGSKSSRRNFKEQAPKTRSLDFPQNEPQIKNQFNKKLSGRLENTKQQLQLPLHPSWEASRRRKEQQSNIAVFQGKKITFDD

Tests used:
Test in all cases: log2 fold change, soluble protein after heating vs DMSO (PISA); higher = thermal stabilisation; K562 cells, 10 uM, 30 min; active = over 0.2 and 3.5 SD of the protein, either way, in both replicates (recomputed)
[1] = compound: NC(=O)Nc1cc(-c2cccc(F)c2)sc1C(=O)N[C@H]1CCCNC1
Procedure, shortened: (§1)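 Soluble protein was defined as the supernatant after 21,000xg for 90 min. It came from K562 cells at 2×10^6 cells/mL given 10 μM compound for 30 min, heated in aliquots for 3 min across 48°C-58°C, pooled, and extracted in PBS with 0.5% NP-40 at 4°C, and was quantified by TMTpro 16plex LC-MS/MS with equalised channel sums. Thermal stability against control samples, from duplicates, is reported as log2 fold change.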

[2] = compound: NC(=O)c1cnc(N[C@@H]2CCCC[C@@H]2N)nc1Nc1cccc(-n2nccn2)c1
Procedure, shortened: as §1

[3] = compound: NC1(c2ccc(-c3nc4ccn5c(=O)[nH]nc5c4cc3-c3ccccc3)cc2)CCC1
Procedure, shortened: as §1

[4] = compound: NCC(=O)Nc1ccc(-n2nc(C(F)(F)F)cc2-c2ccc3c(ccc4ccccc43)c2)cc1
Procedure, shortened: as §1

entinostat = compound: Nc1ccccc1NC(=O)c1ccc(CNC(=O)OCc2cccnc2)cc1 [entinostat]
Procedure, shortened: as §1

vorinostat = compound: O=C(CCCCCCC(=O)Nc1ccccc1)NO [vorinostat]
Procedure, shortened: as §1

citarinostat = compound: O=C(CCCCCCNC(=O)c1cnc(N(c2ccccc2)c2ccccc2Cl)nc1)NO [citarinostat]
Procedure, shortened: as §1

silmitasertib = compound: O=C(O)c1ccc2c(c1)nc(Nc1cccc(Cl)c1)c1ccncc12 [silmitasertib]
Procedure, shortened: as §1

[5] = compound: O=C1NC(=O)C(c2cnc3ccccn23)=C1c1cn2c3c(cc(F)cc13)CN(C(=O)N1CCCCC1)CC2
Procedure, shortened: as §1

[6] = compound: c1cc(OCCN2CCCCC2)cc(-c2n[nH]c3ccc(-c4nnc[nH]4)cc23)c1
Procedure, shortened: as §1

entospletinib = compound: c1cn2cc(-c3ccc4cn[nH]c4c3)nc(Nc3ccc(N4CCOCC4)cc3)c2n1 [entospletinib]
Procedure, shortened: as §1

Measured: log2 fold change

SPNS1 (UniProt Q9H2V7)
inactive: [1] 0.012 | [2] -0.031 | [3] -0.05 | [4] -0.033 | entinostat 0.026 | vorinostat -0.142 | citarinostat -0.046 | silmitasertib 0.039 | [5] 0.101 | [6] 0.029 | entospletinib -0.033

SPP2 (UniProt Q13103)
inactive: [1] 0.005 | [2] 0.247 | [4] 0.005 | entinostat -0.096 | [5] 0.115

STAMBP (UniProt O95630)
inactive: [1] -0.067 | [2] -0.092 | [3] -0.077 | [4] -0.01 | entinostat 0.037 | vorinostat 0.02 | citarinostat 0.046 | silmitasertib 0.104 | [5] 0.005 | [6] 0.074 | entospletinib -0.013

SPIN1 (UniProt Q9Y657)
inactive: [1] -0.097 | [2] -0.031 | [3] 0 | [4] -0.05 | entinostat -0.173 | vorinostat -0.12 | citarinostat -0.126 | silmitasertib 0.055 | [5] -0.047 | [6] 0.03 | entospletinib 0.084

STAU2 (UniProt Q9NUL3)
inactive: [1] 0.007 | [2] -0.052 | [3] 0.385 | [4] 0.035 | entinostat 0.042 | vorinostat 0.008 | citarinostat -0.012 | silmitasertib 0.104 | [5] 0.029 | [6] -0.157 | entospletinib 0.08

SSU72 (UniProt Q9NP77)
inactive: [1] 0.003 | [2] -0.05 | [3] 0.182 | [4] -0.032 | entinostat 0.061 | vorinostat 0.094 | silmitasertib -0.389 | [5] -0.035

SPATA33 isoform 2 (UniProt Q96N06)
inactive: [1] 0.144 | [2] -0.07 | [4] 0.021 | entinostat -0.051 | vorinostat -0.029 | citarinostat 0.004 | [6] -0.073 | entospletinib 0.011

STARD3 (UniProt Q14849)
inactive: [1] 0.014 | [2] 0.079 | [3] -0.236 | [4] -0.073 | entinostat 0.004 | vorinostat -0.021 | silmitasertib 0.053 | [5] -0.003

Reprinted at random: 2 entries already listed, in no set order.
STAU2 (UniProt Q9NUL3)
inactive: [1] 0.007 | [2] -0.052 | [3] 0.385 | [4] 0.035 | entinostat 0.042 | vorinostat 0.008 | citarinostat -0.012 | silmitasertib 0.104 | [5] 0.029 | [6] -0.157 | entospletinib 0.08

SPATA33 isoform 2 (UniProt Q96N06)
inactive: [1] 0.144 | [2] -0.07 | [4] 0.021 | entinostat -0.051 | vorinostat -0.029 | citarinostat 0.004 | [6] -0.073 | entospletinib 0.011

(next part)

ST7 (UniProt Q9NRC1)
inactive: [1] 0.016 | [2] 0.054 | [3] -0.031 | [4] -0.032 | entinostat -0.019 | vorinostat 0.029 | citarinostat -0.024 | silmitasertib 0.018 | [5] 0.045 | [6] -0.134 | entospletinib -0.007

STK24 (UniProt Q9Y6E0)
inactive: [1] 0.106 | [2] 0.062 | [3] -0.105 | [4] 0.019 | entinostat -0.015 | vorinostat 0.027 | citarinostat 0.058 | silmitasertib -0.007 | [5] -0.054 | [6] -0.005 | entospletinib -0.032

SREK1IP1 (UniProt Q8N9Q2)
inactive: [1] -0.01 | [2] 0.076 | [3] -0.022 | [4] 0.061 | entinostat -0.027 | vorinostat 0.015 | citarinostat -0.139 | silmitasertib 0.073 | [5] 0.081 | [6] -0.242 | entospletinib -0.035

SPCS1, A0A5F9YFS9
inactive: [1] 0.044 | [2] -0.097 | [3] -0.05 | [4] -0.06 | entinostat -0.013 | vorinostat 0 | citarinostat -0.262 | silmitasertib -0.021 | [5] -0.156 | [6] 0.014 | entospletinib 0.037

ST3GAL4 isoform 4 (UniProt Q11206)
inactive: [1] -0.045 | [2] -0.064 | entinostat -0.098 | [5] 0.129

STAT2 (UniProt P52630)
inactive: [1] 0.169 | [2] -0.03 | [3] -0.488 | [4] -0.179 | entinostat 0.091 | vorinostat 0.088 | citarinostat 0.135 | silmitasertib 0.391 | [6] 0.016 | entospletinib 0.27

SRSF1 (UniProt Q07955)
inactive: [1] 0 | [2] 0.12 | [3] 0.371 | [4] 0.067 | entinostat -0.065 | vorinostat -0.065 | citarinostat -0.094 | silmitasertib -0.004 | [5] 0.243 | [6] -0.233 | entospletinib 0.16

SPTB isoform 2 (UniProt P11277)
inactive: [1] -0.505 | [2] -0.115 | [3] 0.086 | [4] 0.019 | entinostat -0.343 | vorinostat 0.132 | citarinostat 0.042 | silmitasertib 0.284 | [5] -0.046 | [6] -0.098 | entospletinib 0.23

SPHK1 isoform 2 (UniProt Q9NYA1)
inactive: [1] -0.028 | [2] 0.031 | [3] -0.023 | [4] 0.032 | entinostat -0.034 | vorinostat 0.008 | citarinostat -0.006 | silmitasertib -0.029 | [5] -0.026 | [6] -0.017 | entospletinib -0.178

SQLE (UniProt Q14534)
inactive: [1] -0.101 | [2] -0.081 | [3] 0.104 | [4] -0.071 | entinostat -0.004 | vorinostat -0.011 | citarinostat 0.03 | silmitasertib 0.04 | [5] -0.08 | [6] -0.016 | entospletinib -0.01

ST8SIA6 (UniProt P61647)
inactive: [1] -0.146 | [2] -0.155 | [4] -0.178 | entinostat 0.051 | vorinostat 0.17

SPTLC2 (UniProt O15270)
inactive: [1] -0.063 | [2] -0.028 | [3] -0.092 | [4] -0.044 | entinostat -0.021 | vorinostat -0.041 | citarinostat 0.035 | silmitasertib 0.034 | [5] -0.07 | [6] -0.033 | entospletinib 0.002

SPRYD4 (UniProt Q8WW59)
inactive: [1] -0.008 | [2] -0.048 | [3] -0.042 | [4] -0.071 | entinostat -0.021 | vorinostat 0.025 | citarinostat 0.054 | silmitasertib 0.004 | [5] -0.03 | [6] -0.034 | entospletinib 0.033

STAM (UniProt Q92783)
inactive: [1] -0.03 | [2] -0.046 | [3] -0.069 | [4] -0.037 | entinostat -0.015 | vorinostat -0.007 | citarinostat 0.044 | silmitasertib 0.036 | [5] 0.031 | [6] 0.052 | entospletinib -0.003

SRPK2 isoform 2 (UniProt P78362)
inactive: [1] 0.107 | [2] 0.156 | [3] 0.205 | [4] 0.143 | entinostat -0.049 | vorinostat 0.025 | citarinostat -0.221 | silmitasertib 0.134 | [5] 0.207 | [6] -0.107 | entospletinib 0.078

SPECC1L (UniProt Q69YQ0)
inactive: [1] -0.024 | [2] 0.03 | [3] -0.056 | [4] 0.006 | entinostat -0.04 | vorinostat -0.076 | citarinostat 0.042 | silmitasertib 0.018 | [5] -0.081 | [6] -0.029 | entospletinib -0.026

SPTAN1 isoform 2 (UniProt Q13813)
inactive: [1] -0.023 | [2] -0.001 | [3] 0.012 | [4] -0.016 | entinostat -0.044 | vorinostat 0.004 | citarinostat -0.017 | silmitasertib 0.103 | [5] 0.017 | [6] 0.002 | entospletinib 0.049

SRFBP1 (UniProt Q8NEF9)
inactive: [1] 0.038 | [2] 0.198 | [3] 0.211 | entinostat -0.071 | vorinostat 0.009 | citarinostat 0 | silmitasertib 0.054 | [5] 0.122 | [6] 0.116

ST6GALNAC1 (UniProt Q9NSC7)
inactive: [1] 0.042 | [2] 0.15 | [3] 0.005 | [4] 0.047 | entinostat 0.02 | citarinostat 0.041 | silmitasertib 0.011 | [5] 0.079 | [6] -0.011 | entospletinib -0.073

SSNA1 (UniProt O43805)
inactive: [1] 0.042 | [2] -0.098 | [3] -0.018 | [4] 0.006 | entinostat 0.027 | vorinostat 0.03 | citarinostat 0.075 | silmitasertib 0.005 | [5] 0.057 | [6] -0.007 | entospletinib 0.016
